No constants are given. Whether binding was seen depends on the method and setting. For part of these data: Binding seen in cells or lysates may run through a third protein. Some results given as binding are weak or reduced against the parent protein; the word gives no strength.
Tests used:
FLAG-AMPKα2-WT = FLAG-AMPKα2-WT (UniProt P54646); test: co-IP
[1] = target: GST-AMPK-C (291-552 a.a.) (UniProt P54646); test: pull-down

Chains of the proteins cited; added tags and fusions are not shown. Lines headed by an entry give the natural chain unless they say otherwise; changes in a name come on top. Residues count along the entry.
UniProt P54646: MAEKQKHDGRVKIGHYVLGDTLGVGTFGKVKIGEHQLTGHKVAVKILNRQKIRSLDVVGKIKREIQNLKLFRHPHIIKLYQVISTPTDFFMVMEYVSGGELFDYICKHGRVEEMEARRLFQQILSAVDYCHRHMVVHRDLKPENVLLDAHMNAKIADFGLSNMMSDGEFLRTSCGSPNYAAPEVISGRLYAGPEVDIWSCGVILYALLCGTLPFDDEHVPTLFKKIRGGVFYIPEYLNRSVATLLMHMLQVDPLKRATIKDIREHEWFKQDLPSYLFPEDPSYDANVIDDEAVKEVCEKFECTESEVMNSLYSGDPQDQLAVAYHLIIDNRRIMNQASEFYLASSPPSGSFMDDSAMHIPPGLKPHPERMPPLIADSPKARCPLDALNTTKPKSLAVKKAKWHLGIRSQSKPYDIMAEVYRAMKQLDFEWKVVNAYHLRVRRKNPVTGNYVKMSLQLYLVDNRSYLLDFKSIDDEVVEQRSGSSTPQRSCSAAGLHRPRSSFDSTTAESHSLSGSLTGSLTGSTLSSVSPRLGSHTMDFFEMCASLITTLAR
GST-AMPK-C (291-552 a.a.): residues 291-552 of P54646
UniProt P62330: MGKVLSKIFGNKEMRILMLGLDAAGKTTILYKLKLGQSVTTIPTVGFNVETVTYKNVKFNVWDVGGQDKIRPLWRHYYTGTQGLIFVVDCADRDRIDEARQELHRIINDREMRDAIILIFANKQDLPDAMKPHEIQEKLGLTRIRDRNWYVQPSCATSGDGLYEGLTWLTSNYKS

Substance | binding (FLAG-AMPKα2-WT) | binding [1]
Arf6-Q67L-myc (from UniProt P62330 1-175) | no binding | –
Arf6-T27N-myc (from UniProt P62330 1-175) | binds | –
His-Arf6 WT (from UniProt P62330 1-175) | – | binds

Source: paper doi:10.1101/2021.11.18.469188
